Assay results: PMC8008952
Read-outs that look alike come from different tables or passages of the source. These are yes or no findings as the source states them, for the method shown. Binding seen in cells or lysates may run through a third protein. A yes stands for co-enrichment or nearness to the bait. Other partners may have been found.

Amino acid sequences for entries named in this document (tags omitted).
UniProt Q9QY76: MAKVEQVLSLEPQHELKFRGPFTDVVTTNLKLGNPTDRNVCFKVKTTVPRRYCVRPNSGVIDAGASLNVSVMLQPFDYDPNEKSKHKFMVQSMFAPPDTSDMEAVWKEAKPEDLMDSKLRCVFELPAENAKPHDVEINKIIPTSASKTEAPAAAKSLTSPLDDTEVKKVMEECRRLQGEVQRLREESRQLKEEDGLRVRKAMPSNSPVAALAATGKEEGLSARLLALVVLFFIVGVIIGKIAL
UniProt Q3U9G9: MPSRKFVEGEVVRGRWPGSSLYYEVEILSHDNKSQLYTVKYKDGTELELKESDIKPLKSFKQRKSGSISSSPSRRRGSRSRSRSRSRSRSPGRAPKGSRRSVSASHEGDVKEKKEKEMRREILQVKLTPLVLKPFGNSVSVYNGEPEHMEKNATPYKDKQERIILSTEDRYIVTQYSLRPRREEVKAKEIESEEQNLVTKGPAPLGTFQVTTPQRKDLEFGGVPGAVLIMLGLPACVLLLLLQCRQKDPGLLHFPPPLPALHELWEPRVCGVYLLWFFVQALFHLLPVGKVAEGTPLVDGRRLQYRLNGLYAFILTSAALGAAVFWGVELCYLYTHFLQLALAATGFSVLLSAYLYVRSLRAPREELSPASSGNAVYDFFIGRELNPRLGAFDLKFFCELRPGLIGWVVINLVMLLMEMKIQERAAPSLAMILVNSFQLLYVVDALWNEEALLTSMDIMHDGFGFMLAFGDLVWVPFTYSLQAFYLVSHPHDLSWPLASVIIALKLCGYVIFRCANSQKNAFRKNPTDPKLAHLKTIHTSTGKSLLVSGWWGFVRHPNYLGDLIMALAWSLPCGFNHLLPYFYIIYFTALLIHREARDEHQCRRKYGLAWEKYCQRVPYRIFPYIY
UniProt P18608: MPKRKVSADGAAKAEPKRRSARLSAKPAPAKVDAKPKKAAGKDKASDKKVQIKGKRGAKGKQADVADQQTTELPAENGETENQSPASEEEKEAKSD

B1: LEM-domain containing protein 3 (MAN1) (protein, UniProt Q9WU40 1-921)
chain: MAAATAAAAPQQLSDEELFSQLRRYGLSPGPVTESTRPVYLKKLKKLREEEQQQQQQQQQQQHRAGGRGNKTRNSNNNNTATAMGGRPGSGDLAYLRSPAGLGRLSASAAESPVAGGSGGAAAVPAAGSKVLLGFSSDESDVEASPREQAGGGGGGGARRDRAALQYRGLRAPPAPPAAGEVTGGHPGERRKPHSWWGARRPAGPEPQPPAAGSDGAAEDADEELADGEDRDPEAEEPLWASRAVNGSRLLPYSSCREHYSDSEEEEEEGEEDGDVAPARQVLKDDSLARHRPRRSHSKPFSALTAKSGGSRQETSVQGGGALAMNDRAAAAGSLDRSRNLEEAAAEPGGGGGGGCGCDPVDSIPRYRAGAKKLAPLLSPPSPDGDSTLESPTGPLLKTNNHIGGGAFGVDSPGLYANSLPPGATAAAAPGTLRINHANHTGSNHTYLKTAYGKPKLCEPEEELLQQFKREEVSPTGSFSAHYLSMFLLTAACLFFLILGLTYLGMRGTGVPEDGGLIKNPFDETFGKIQESEKNLLMSTLYKLHDRLAQIAGDHECGSSSQRMLSVQEAAAYLKNLGPEYEDVFNTSLLWIFKNGKDVGIRCVGYGPEEDLTNITDVQFLQSTRPQMPFWCRFRRAFITVTHRLLLLCLGVVLVCVALRYMRYRWTKEEEETRQMYDMVVKIIDVLRSHNEACQETKDLQPYMPLPHVRDSLIQPQDRKKMKKVWDRAVDFLAANESRVRTETRRVGGADFLVWRWIQPSASCDKTLVIPSKVWQGQAFHLDRRNSPPNSLTPCLKIRNMFDPVMEIGDHWHLAIQEAILEKCSDNDGIVHIAVDRNSREGCVYVKCLSPEYAGKAFKALHGSWFDGKLVTVKYLRLDRYHHRFPQALTCNTPLKPANKHMNSLSHLRLRTGLANSQGSS
B2: nucleoporin NDC1 (NDC1) (protein, UniProt Q8VCB1 1-673)
chain: MATAASGPCAGGSPRDILWRVLGWRIVTSIVWSVVLLPVCITAFIVLSSINLFHPIQWLSDSCNDFYSSQVIFHLLLLAVVIIIISIFNVEFYTVVPSISGSRLALIARILHPQQLTHSFIHAAMGMAVAWCAAIMTKGQYSSLVVPCTGTESLDSPAAQTCLNEYHLFFLLSGAFMGYSYSLLYFINNMNYLPFPIIQQYKFLRFRRSLLLLVKHSCVESLFMVRNFCIVYYFFGHIPKAWISTALDLHTDEQAHRPLDTIGGLLNVSLLYHVWLCGVFLLVTWYSSWILFKIYATEAHVFPVQPPFAEASDECLPKVLNSNPPRIVKYLALQDLMLLSQYSPSRRQEVFSLSQPGGHPHNWTAISRECLNLLNDMTQKLVLYQEAAATNGRMYSSYSVEPKKLSSAEETAFQTPKPSQTPSVPPLVKTSLFSPKLSTPNVSSPFGTPFGSSVVNRMAGILDVNPFSGSPQSPQLIRRGPRLWTHTSDQQVSAISNPSPCASVTAEGKTVRQPSVIYSWIQNKREQIKNFLSKRVLIMYFFSKHPEASIQAVFSDAQMHIWALEGLSHLVAASFTEDRFGVVQTTLPAILHTLLTLQEAVDKYFKLPHASSKPPRASGSLVDTSYKTLRFAFRASLKTAIYRITTTFGEHLNAVQASAEHQKRLQQFLEFKE
B3: transmembrane protein 214 (TMEM214) (protein, UniProt Q8BM55 1-687)
chain: MAARSAGSGGWEVVKRGRRPGASSGGRGGGGGSDRRALGEANGVLKYDLSSPIQTTSTLYERGFEKIMKRQNKEQVPPPAAESKKPINKKQPKKVTAVPSQNQKQGPFRRLEDALKALDVAALQKELDKSQSVFTGNPSVWLKDLASYLNYKLQTPRMEPTLSQYPHDYPYSLVSRELRGIIRGLLTKAAGSVELFFDHCLFTMLQELDKTPGESLHGYRICIQAVLQDKPKIVTSNLDKFLELLRSHQSRPAKCLTIMWALGQAGFTNLTEGLKVWLGIMLPVLGIKALSPFAIAYLDRLLLMHPNLTKGFGMIGPKDFFPLLDFAYMPNNSLSPSLQEQLCQLFPRLKVLAFGAKPESSLHTYFPSFLSRATPSCPAAMKKELLASLTQCLTVDPLSTSVWRQLYPKHLSQSSLLLEHLLKSWEHIPKKARKSLQETIQSLKVTNQELLKKGSGGSEHVLTCDTACKGLLQRARGPRPPWARLFLLLLVFAVGFLCHDLRSNSSLQASLTGRLLRSSGLLPVGQQVCARLSSYSLQSYNWLQETLPACGSHLLAVVQPSLQLAWTHIYAIFSFLSAHCASYLACFSDSLAGFFQRVQLPEALQQLFHALKELLLLFCHSVLLPTWHLLLAALAQVQEHCHEACRGDVTWDCIKTQLSRAAQWTWLCLQDVTVAFLDWALTMISQQ
B4: Lamin B1 (protein, UniProt P14733 1-588)
chain: MATATPVQQQRAGSRASAPATPLSPTRLSRLQEKEELRELNDRLAVYIDKVRSLETENSALQLQVTEREEVRGRELTGLKALYETELADARRALDDTARERAKLQIELGKFKAEHDQLLLNYAKKESDLSGAQIKLREYEAALNSKDAALATALGDKKSLEGDLEDLKDQIAQLEASLSAAKKQLADETLLKVDLENRCQSLTEDLEFRKNMYEEEINETRRKHETRLVEVDSGRQIEYEYKLAQALHEMREQHDAQVRLYKEELEQTYHAKLENARLSSEMNTSTVNSAREELMESRMRIESLSSQLSNLQKESRACLERIQELEDMLAKERDNSRRMLSDREREMAEIRDQMQQQLSDYEQLLDVKLALDMEISAYRKLLEGEEERLKLSPSPSSRVTVSRASSSRSVRTTRGKRKRVDVEESEASSSVSISHSASATGNVCIEEIDVDGKFIRLKNTSEQDQPMGGWEMIRKIGDTSVSYKYTSRYVLKAGQTVTVWAANAGVTASPPTDLIWKNQNSWGTGEDVKVILKNSQGEEVAQRSTVFKTTIPEEEEEEEEEPIGVAVEEERFHQQGAPRASNKSCAIM
B5: Lamin B2 (protein, UniProt P21619 1-596)
chain: MASLPPHAGPATPLSPTRLSRLQEKEELRELNDRLAHYIDRVRALELENDRLLLRISEKEEVTTREVSGIKTLYESELADARRVLDETARERARLQIEIGKVQAELEEARKSAKKREGELTVAQGRVKDLESLFHRSEAELATALSDKQGLETEVAELRAQLAKAEDGHAVAKKQLEKETLMRVDLENRCQSLQEELAFSKSVFEEEVRETRRRHERRLVEVDSSRQQEYDFKMAQALEDLRSQHDEQVRLYRVELEQTYQAKLDNAKLLSDQNDKAAHAAREELKEARMRVESLSYQLLGLQKQASAAENHIHELEEALAGERDKFRKMLDAKEQEMTEVRDAMQQQLAEYQELLDIKLALDMEISAYRKLLEGEEERLKLSPSPSSRITISRATSSSSSSSGVGMSVGQGRGKRRRLETEDTSGSPSRASRVSSGSRLAQQTVATGVVNIDEVDPEGRFVRLKNSSDKDQSLGNWRIKRQVLEGEDIAYKFTPKYVLRAGQTVTVWAAGAGATHSPPSTLVWKSQTNWGPGESFRTALVSADGEEVAVKAAKHSSVQGRENGEEEEEEEAEFGEEDLFHQQGDPRTTSRGCRLM
B6: SUN domain-containing protein 1 (SUN1) (protein, UniProt Q9D666 1-913)
chain: MDFSRLHTYTPPQCVPENTGYTYALSSSYSSDALDFETEHKLEPVFDSPRMSRRSLRLVTTASYSSGDSQAIDSHISTSRATPAKGRETRTVKQRRSASKPAFSINHLSGKGLSSSTSHDSSCSLRSATVLRHPVLDESLIREQTKVDHFWGLDDDGDLKGGNKAATQGNGELAAEVASSNGYTCRDCRMLSARTDALTAHSAIHGTTSRVYSRDRTLKPRGVSFYLDRTLWLAKSTSSSFASFIVQLFQVVLMKLNFETYKLKGYESRAYESQSYETKSHESEAHLGHCGRMTAGELSRVDGESLCDDCKGKKHLEIHTATHSQLPQPHRVAGAMGRLCIYTGDLLVQALRRTRAAGWSVAEAVWSVLWLAVSAPGKAASGTFWWLGSGWYQFVTLISWLNVFLLTRCLRNICKVFVLLLPLLLLLGAGVSLWGQGNFFSLLPVLNWTAMQPTQRVDDSKGMHRPGPLPPSPPPKVDHKASQWPQESDMGQKVASLSAQCHNHDERLAELTVLLQKLQIRVDQVDDGREGLSLWVKNVVGQHLQEMGTIEPPDAKTDFMTFHHDHEVRLSNLEDVLRKLTEKSEAIQKELEETKLKAGSRDEEQPLLDRVQHLELELNLLKSQLSDWQHLKTSCEQAGARIQETVQLMFSEDQQGGSLEWLLEKLSSRFVSKDELQVLLHDLELKLLQNITHHITVTGQAPTSEAIVSAVNQAGISGITEAQAHIIVNNALKLYSQDKTGMVDFALESGGGSILSTRCSETYETKTALLSLFGVPLWYFSQSPRVVIQPDIYPGNCWAFKGSQGYLVVRLSMKIYPTTFTMEHIPKTLSPTGNISSAPKDFAVYGLETEYQEEGQPLGRFTYDQEGDSLQMFHTLERPDQAFQIVELRVLSNWGHPEYTCLYRFRVHGEPIQ
B7: SUN domain-containing protein 2 (SUN2) (protein, UniProt Q8BJS4 1-731)
chain: MSRRSQRLTRYSQDDNDGGSSSSGASSVAGSQGTVFKDSPLRTLKRKSSNMKHLSPAPQLGPSSDSHTSYYSESVVRESYIGSPRAVSLARSALLDDHLHSEPYWSGDLRGRRRRGTGGSESSKANGLTAESKASEDFFGSSSGYSSEDDLAGYTDSDQHSSGSRLRSAASRAGSFVWTLVTFPGRLFGLLYWWIGTTWYRLTTAASLLDVFVLTRSRHFSLNLKSFLWFLLLLLLLTGLTYGAWHFYPLGLQTLQPAVVSWWAAKESRKQPEVWESRDASQHFQAEQRVLSRVHSLERRLEALAADFSSNWQKEAIRLERLELRQGAAGHGGGSSLSHEDALSLLEGLVSRREATLKEDLRRDTVAHIQEELATLRAEHHQDSEDLFKKIVQASQESEARVQQLKTEWKSMTQEAFQESSVKELGRLEAQLASLRQELAALTLKQNSVADEVGLLPQKIQAARADVESQFPDWIRQFLLGDRGARSGLLQRDEMHAQLQELENKILTKMAEMQGKSAREAAASLGQILQKEGIVGVTEEQVHRIVKQALQRYSEDRIGMVDYALESGGASVISTRCSETYETKTALLSLFGIPLWYHSQSPRVILQPDVHPGNCWAFQGPQGFAVVRLSARIRPTAVTLEHVPKALSPNSTISSAPKDFAIFGFDEDLQQEGTLLGTFAYDQDGEPIQTFYFQASKMATYQVVELRILTNWGHPEYTCIYRFRVHGEPAH

How the values were obtained:
[1] = molecular target: T1, BirA*-Lap2β (lamina-associated polypeptide β with BirA* on its nucleoplasmic N terminus) (mouse (cDNA from MEFs)) (UniProt Q61029); experiment: proximity labelling; BioID with BioSITe: cells expressing BirA*-Lap2β cultured overnight with 50 μM biotin, crude nuclear extraction, tryptic digest, biotinylated peptides captured with anti-biotin antibody, LC-MS/MS; proteins enriched >2-fold over BirA*-m6A-tracer alone (control) taken as LAP2β proximity/interaction
T1 sequence: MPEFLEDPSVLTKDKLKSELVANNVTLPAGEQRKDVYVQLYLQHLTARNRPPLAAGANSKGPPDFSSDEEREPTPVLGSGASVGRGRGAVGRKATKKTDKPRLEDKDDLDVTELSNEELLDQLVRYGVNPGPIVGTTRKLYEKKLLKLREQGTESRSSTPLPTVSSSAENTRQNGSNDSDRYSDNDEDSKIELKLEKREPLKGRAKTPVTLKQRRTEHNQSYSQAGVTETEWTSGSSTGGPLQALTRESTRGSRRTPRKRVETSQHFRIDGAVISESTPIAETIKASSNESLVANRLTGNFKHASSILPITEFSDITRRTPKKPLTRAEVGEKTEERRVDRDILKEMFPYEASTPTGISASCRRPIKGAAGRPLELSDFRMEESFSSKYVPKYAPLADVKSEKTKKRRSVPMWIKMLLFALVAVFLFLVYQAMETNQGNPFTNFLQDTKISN

[2] = molecular target: T1, BirA*-Lap2β (lamina-associated polypeptide β with BirA* on its nucleoplasmic N terminus) (mouse (cDNA from MEFs)); experiment: as above; remark: listed apart in the source

Molecule | binding [1] | binding [2]
vesicle-associated membrane protein-associated protein B (VAPB) (from UniProt Q9QY76 1-243) | binds | –
Lamin B receptor (LBR) (from UniProt Q3U9G9 1-626) | binds | –
HMGN1 (from UniProt P18608 1-96) | binds | –
B1 | – | binds
B2 | – | binds
B3 | – | binds
B4 | – | binds
B5 | – | binds
B6 | – | binds
B7 | – | binds
